Literature values in patent US20220257490A1, “METHOD FOR DYEING KERATINOUS MATERIAL, COMPRISING THE USE OF AN ORGANOSILICON COMPOUND, A COLORED EFFECT PIGMENT AND A FILM-FORMING POLYMER IV” (Henkel AG & Co. KGaA, priority 2019, published 2022).

Conditions: 25° C.

CCN(Cc1cccc(S(=O)(=O)[O-])c1)c1ccc(C(=C2C=CC(=[N+](CC)Cc3cccc(S(=O)(=O)[O-])c3)C=C2)c2ccccc2S(=O)(=O)[O-])cc1.[Na+].[Na+] [Acid Blue 9]
solubility in water: more than 20 % by weight
